From patent US12162937B2, “Methods of treating an inflammatory disorder by administering an antibody which binds to a connexin CX43 hemichannel” (BOARD OF REGENTS OF THE UNIVERSITY OF TEXAS SYSTEM, priority 2013, dated 2024)
Entries after “also recorded” stand apart in the source; their conditions may differ.

By UniProt entry, the sequences of proteins in these tests, tags left out.
UniProt P23242, whole entry: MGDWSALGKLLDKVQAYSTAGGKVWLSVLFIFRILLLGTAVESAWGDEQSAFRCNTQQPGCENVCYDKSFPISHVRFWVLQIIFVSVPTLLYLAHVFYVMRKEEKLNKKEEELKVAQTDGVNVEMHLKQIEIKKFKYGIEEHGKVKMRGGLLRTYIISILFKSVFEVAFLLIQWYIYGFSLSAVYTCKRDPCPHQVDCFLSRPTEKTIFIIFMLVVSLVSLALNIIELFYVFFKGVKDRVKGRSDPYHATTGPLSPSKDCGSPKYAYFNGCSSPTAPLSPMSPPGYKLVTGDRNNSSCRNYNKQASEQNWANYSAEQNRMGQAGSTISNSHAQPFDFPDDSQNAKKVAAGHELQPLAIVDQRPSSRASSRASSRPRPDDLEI

Molecular target: Cx43 hemichannels (Mus musculus, UniProt P23242)
Test: Ethidium bromide dye uptake in MLO-Y4 osteocytic cells treated with AD
Format: cell-based
Parameters: endogenous in cells; host or cells: MLO-Y4 osteocytic cells
Settings: 20 μM AD for 30 min, presence of calcium
Method: Study was carried out in calcium conditions. Low calcium conditions were used as control (opens hemichannels).
Methods for determining if a reagent opens hemichannels include one or more of the following steps: • (a) Isolating, obtaining, or producing a connexin expressing cell or cell line. For example, isolating primary osteocytes from calvcria. Other cell types can be isolated using other methods known in the art. In certain aspects calvarial osteocytes are isolated from animals (e.g., 16-day embryonic chicken calvaria or new-born mice). Animals are decapitated and calvarial bone is dissected and quickly dipped in 70% alcohol. […] Permeability tracer uptake is determined by detecting the amount of tracer inside the cells. […] Fluorescence can be recorded at regions of interest in different cells with an eclipse filter on a microscope based on the wavelength of the fluorescence of the tracer or other probe(s) being used. […] The collected data can be illustrated as fold difference of initial fluorescence and fluorescence at the time of interest versus the basal fluorescence.
For snapshot images, cells can be exposed to permeability tracer for 5-10 minutes, rinsed multiple times with PBS, and fixed with formaldehyde. In certain aspects, at least three microphotographs of fluorescence fields are taken with a microscope. […] The average of pixel density of random cells is measured. […]

NCCCC(O)(P(=O)(O)O)P(=O)(O)O [AD, alendronate]
opening of osteocytic Cx43 hemichannels (ethidium bromide dye uptake): opening of osteocytic hemichannels induced by AD; also recorded: opened
